# Data: article PMC7862700
# This is a selection; strong and weak results do not stand in their true shares. For part of these data: At the low end of the ranking the order means little.
# Key:
# Assay in all cases: DAPPL (digital affinity profiling via proximity ligation, sequencing)
# Conditions in all cases: 10 mM Tris-HCl pH 7.5, 50 mM NaCl, 1 mM DTT, 4% glycerol, room temperature, 30 min; GST-TFs on glutathione beads, 16-mer random dsDNA library, 0.1% …; high values mean tight binding; double strand, one strand shown; scale: fold enrichment (6-mer frequency, TF over GST control)
# ELK3 = target: T1, ELK3 (UniProt P41970)
# T1 sequence: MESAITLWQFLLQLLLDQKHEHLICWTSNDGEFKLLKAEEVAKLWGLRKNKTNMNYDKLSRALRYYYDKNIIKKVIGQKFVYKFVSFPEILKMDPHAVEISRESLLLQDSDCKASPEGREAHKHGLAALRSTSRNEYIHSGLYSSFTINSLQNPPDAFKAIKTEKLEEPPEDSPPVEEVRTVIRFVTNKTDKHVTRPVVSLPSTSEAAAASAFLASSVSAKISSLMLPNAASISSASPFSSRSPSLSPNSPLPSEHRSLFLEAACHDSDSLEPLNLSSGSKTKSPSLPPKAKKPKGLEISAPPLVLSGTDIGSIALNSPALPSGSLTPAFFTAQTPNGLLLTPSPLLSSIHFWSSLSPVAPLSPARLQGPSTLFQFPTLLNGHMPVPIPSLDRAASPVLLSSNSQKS
# SPIC = target: T2, SPIC (UniProt Q8N5J4)
# T2 sequence: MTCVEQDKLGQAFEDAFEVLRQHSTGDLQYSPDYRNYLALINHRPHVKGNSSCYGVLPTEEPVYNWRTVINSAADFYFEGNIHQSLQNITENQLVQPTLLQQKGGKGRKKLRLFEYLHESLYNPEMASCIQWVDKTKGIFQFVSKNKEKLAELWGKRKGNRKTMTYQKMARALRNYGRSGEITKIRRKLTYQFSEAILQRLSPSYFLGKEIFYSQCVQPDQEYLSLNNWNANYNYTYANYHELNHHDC
# ELK1 = target: T3, ELK1 (UniProt P19419)
# T3 sequence: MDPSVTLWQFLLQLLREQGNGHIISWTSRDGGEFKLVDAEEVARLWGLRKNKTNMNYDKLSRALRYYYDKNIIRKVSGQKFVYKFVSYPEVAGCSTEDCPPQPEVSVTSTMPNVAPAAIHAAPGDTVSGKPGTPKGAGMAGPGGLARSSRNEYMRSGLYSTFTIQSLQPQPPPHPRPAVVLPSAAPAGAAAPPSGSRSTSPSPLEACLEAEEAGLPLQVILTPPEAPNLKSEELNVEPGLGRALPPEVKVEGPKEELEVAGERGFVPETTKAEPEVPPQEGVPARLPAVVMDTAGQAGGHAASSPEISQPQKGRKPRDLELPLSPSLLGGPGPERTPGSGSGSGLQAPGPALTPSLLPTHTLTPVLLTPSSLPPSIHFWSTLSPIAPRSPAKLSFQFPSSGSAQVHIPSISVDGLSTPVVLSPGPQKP
# ETS2 = target: T4, ETS2 (UniProt P15036)
# T4 sequence: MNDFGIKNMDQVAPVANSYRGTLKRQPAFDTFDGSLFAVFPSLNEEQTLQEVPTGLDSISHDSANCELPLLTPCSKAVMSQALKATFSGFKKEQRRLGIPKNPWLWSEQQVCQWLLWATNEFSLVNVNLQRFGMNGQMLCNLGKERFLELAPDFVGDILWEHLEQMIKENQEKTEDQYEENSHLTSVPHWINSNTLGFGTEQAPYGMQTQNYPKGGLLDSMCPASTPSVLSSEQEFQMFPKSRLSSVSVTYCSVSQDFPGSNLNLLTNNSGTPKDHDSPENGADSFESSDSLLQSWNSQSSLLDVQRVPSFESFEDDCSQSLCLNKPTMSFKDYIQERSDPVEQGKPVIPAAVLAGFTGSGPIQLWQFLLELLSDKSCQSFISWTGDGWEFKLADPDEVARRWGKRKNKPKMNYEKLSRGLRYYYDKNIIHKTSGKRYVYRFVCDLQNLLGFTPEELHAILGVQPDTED
# ETV3 = target: T5, ETV3 (UniProt P41162-2)
# T5 sequence: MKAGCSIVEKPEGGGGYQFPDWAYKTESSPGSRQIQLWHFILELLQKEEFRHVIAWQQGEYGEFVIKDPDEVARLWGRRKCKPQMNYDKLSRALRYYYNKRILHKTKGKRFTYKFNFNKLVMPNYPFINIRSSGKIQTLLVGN
sequence,measurement,setting,value
TGACGA,binding signal,ELK3,0.979
same,binding signal,SPIC,0.883
CTCTGC,binding signal,ELK1,1.6
TATACT,binding signal,ELK3,1.43
same,binding signal,SPIC,1.43
TTAGTA,binding signal,ELK3,1.08
same,binding signal,SPIC,1.16
TAAGGT,binding signal,ELK3,1.13
same,binding signal,SPIC,1.11
TTCCAG,binding signal,ELK3,1.07
same,binding signal,SPIC,1.02
TCTGAT,binding signal,ELK1,1.21
TCTCGA,binding signal,ELK1,1.34
ACAGAT,binding signal,ELK3,0.978
same,binding signal,SPIC,0.923
GGTATA,binding signal,ELK3,0.984
same,binding signal,SPIC,0.998
CGAAGC,binding signal,ELK1,1.36
CCTGTT,binding signal,ELK3,1.94
same,binding signal,SPIC,1.91
GTTAAC,binding signal,ELK1,1.22
ATACTG,binding signal,ELK1,1.09
TCTCTG,binding signal,ELK3,1.52
same,binding signal,SPIC,1.59
GATATC,binding signal,ELK1,1.6
AGCTTT,binding signal,ELK3,1.13
same,binding signal,SPIC,1.03
GGAACA,binding signal,ELK1,1.09
AACAAA,binding signal,ELK3,1.27
same,binding signal,SPIC,1.14
TACTGC,binding signal,ELK1,1.22
CTGTTT,binding signal,ELK3,1.34
same,binding signal,SPIC,1.31
CGCGTC,binding signal,ELK1,1.24
GCTCAA,binding signal,ELK3,1.01
same,binding signal,SPIC,1.19
CGCTTT,binding signal,ELK1,1.1
ATACCG,binding signal,ELK1,1
AAAGCG,binding signal,ELK1,0.996
AATCGC,binding signal,ELK1,1.09
TTCCCC,binding signal,ELK3,1.61
same,binding signal,SPIC,1.87
TACACC,binding signal,ELK1,1.27
AATTCA,binding signal,ELK3,1.47
same,binding signal,SPIC,1.32
CATATT,binding signal,ELK1,1.17
ATAAAC,binding signal,ELK3,1.14
same,binding signal,SPIC,1.2
CCTCGT,binding signal,ELK1,1.1
CGTACT,binding signal,ELK3,1.26
same,binding signal,SPIC,1.12
CTCTGG,binding signal,ELK1,1.5
CCCTTT,binding signal,ELK1,1.36
ACCGTC,binding signal,ELK1,1.21
AAAATC,binding signal,ELK3,1.1
same,binding signal,SPIC,1.07
ATTGAC,binding signal,ELK1,1.21
same,binding signal,ELK3,1.16
same,binding signal,ETS2,1.36
TCGACC,binding signal,ELK1,1.32
same,binding signal,ELK3,1.35
same,binding signal,ETV3,1.27
ATACGT,binding signal,ELK1,1.14
same,binding signal,ETV3,1.14
ATGGAA,binding signal,ELK1,1.11
same,binding signal,ETV3,1.2
CCTCAC,binding signal,ELK1,1.3
same,binding signal,ETV3,1.12
GCTATT,binding signal,ELK1,1.34
same,binding signal,ETV3,1.25
AAACAT,binding signal,ELK1,1.4
same,binding signal,ETV3,1.48
ACTACC,binding signal,ELK1,1.72
same,binding signal,ETV3,1.7
ACTAAC,binding signal,ELK1,1.3
same,binding signal,ETV3,1.24
ATACCA,binding signal,ELK1,1.07
same,binding signal,ETV3,0.987

# Another view of some results above.
sequence	measurement	setting	value
GGTATA	binding signal	SPIC	0.998
CGAAGC	binding signal	ELK1	1.36

# Part of the list above, with tabs.
sequence	measurement	setting	value
ACTACC	binding signal	ELK1	1.72
ATACCA	binding signal	ELK1	1.07
